Source: PubChem BioAssay AID1259331 (Drosophila RNAi Screening Center, 2017)
Aim: 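Genes whose knock-down changes cell survival under toxic zinc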 (primary screen). Cell system: Drosophila S2R+ cells. Knock-down reagent: long dsRNA against Drosophila genes. Time to read-out: 5 days (4 days knock-down, then 1 day zinc). Conditions: zinc chloride at 15 mM final level for 1 day. Measured: 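Luminescent ATP assay standing in for viability; Z score is the mean over three replicate plates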. Direction: mean Z score: higher = more ATP than other wells, better survival under zinc; ATP luminescence: higher = more ATP, more viable cells. Hit rule: 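a reagent is called a hit when its Z score is above 1.5 or below -1.5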. Meaning of the calls: active = hit, ATP up or down; inactive = not a hit.
The whole screen tested about 3,100 reagents; this is an unselected part. Of all reagents, 126 (4.1%) got an active call. 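Calls are per reagent; zinc was so toxic that few knock-downs lowered ATP further, so most hits raise ATP.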 Raw values vary from plate to plate and are shown uncorrected. The numbers tell different reagents against one gene apart. Not stated in the record: the amount of reagent.

For CG32246 #1, how do the results read?
mean Z score: 0.268; ATP luminescence, replicate 1: 43382; ATP luminescence, replicate 2: 46074; Call: inactive

With CG32246 #2, what does the deposit list?
mean Z score: -0.39; ATP luminescence, replicate 1: 52064; ATP luminescence, replicate 2: 58763; Call: inactive

What is on record for Cds (CDP-diacylglycerol synthase)?
mean Z score: -0.369; ATP luminescence, replicate 1: 28622; ATP luminescence, replicate 2: 28519; Call: inactive

How did the screen score CG10444 #1?
mean Z score: -0.672; ATP luminescence, replicate 1: 25005; ATP luminescence, replicate 2: 27751; Call: inactive

How did the screen score CG10444 #2?
mean Z score: -0.676; ATP luminescence, replicate 1: 51355; ATP luminescence, replicate 2: 49692; Call: inactive

What did the screen give for Amt (Ammonium transporter) #1?
mean Z score: 0.222; ATP luminescence, replicate 1: 37742; ATP luminescence, replicate 2: 61141; Call: inactive

With Amt (Ammonium transporter) #2, what does the deposit list?
mean Z score: 0.145; ATP luminescence, replicate 1: 62913; ATP luminescence, replicate 2: 57888; Call: inactive

Which result is listed for CG11655?
mean Z score: 0.798; ATP luminescence, replicate 1: 78554; ATP luminescence, replicate 2: 80012; Call: inactive

What is on record for Asph (Aspartyl beta-hydroxylase) #1?
mean Z score: 0.326; ATP luminescence, replicate 1: 70150; ATP luminescence, replicate 2: 78366; Call: inactive

For Asph (Aspartyl beta-hydroxylase) #2, what was measured?
mean Z score: 0.764; ATP luminescence, replicate 1: 73855; ATP luminescence, replicate 2: 72483; Call: inactive

For Miro (Mitochondrial Rho) #1, what does the deposit list?
mean Z score: -0.345; ATP luminescence, replicate 1: 42405; ATP luminescence, replicate 2: 43382; Call: inactive

With Miro (Mitochondrial Rho) #2, how do the results read?
mean Z score: -0.325; ATP luminescence, replicate 1: 50601; ATP luminescence, replicate 2: 53550; Call: inactive

For Hsepi (Heparan sulfate C5-epimerase) #1, what was measured?
mean Z score: 1.3; ATP luminescence, replicate 1: 1.20e5; ATP luminescence, replicate 2: 95606; Call: inactive

What did the screen give for Hsepi (Heparan sulfate C5-epimerase) #2?
mean Z score: 0.0568; ATP luminescence, replicate 1: 56031; ATP luminescence, replicate 2: 58214; Call: inactive

How did the screen score Ptp4E (Protein tyrosine phosphatase 4E) #1?
mean Z score: -0.427; ATP luminescence, replicate 1: 38273; ATP luminescence, replicate 2: 39953; Call: inactive

For Ptp4E (Protein tyrosine phosphatase 4E) #2, what does the deposit list?
mean Z score: -0.396; ATP luminescence, replicate 1: 44994; ATP luminescence, replicate 2: 40998; Call: inactive

Which result is listed for Ptp4E (Protein tyrosine phosphatase 4E) #3?
mean Z score: -0.344; ATP luminescence, replicate 1: 41359; ATP luminescence, replicate 2: 41812; Call: inactive

2 entries from above, sorted by “ATP luminescence, replicate 1”, highest first:
Ptp4E (Protein tyrosine phosphatase 4E) #2: mean Z score = -0.396; ATP luminescence, replicate 1 = 44994; ATP luminescence, replicate 2 = 40998; Call = inactive
Ptp4E (Protein tyrosine phosphatase 4E) #1: mean Z score = -0.427; ATP luminescence, replicate 1 = 38273; ATP luminescence, replicate 2 = 39953; Call = inactive
